Assay results from patent publication US20040170969A1.

Biological target: T1, Flag-epitope-tagged murine Ras-GRF2 (murine) (UniProt P70392)
T1 sequence (looked up): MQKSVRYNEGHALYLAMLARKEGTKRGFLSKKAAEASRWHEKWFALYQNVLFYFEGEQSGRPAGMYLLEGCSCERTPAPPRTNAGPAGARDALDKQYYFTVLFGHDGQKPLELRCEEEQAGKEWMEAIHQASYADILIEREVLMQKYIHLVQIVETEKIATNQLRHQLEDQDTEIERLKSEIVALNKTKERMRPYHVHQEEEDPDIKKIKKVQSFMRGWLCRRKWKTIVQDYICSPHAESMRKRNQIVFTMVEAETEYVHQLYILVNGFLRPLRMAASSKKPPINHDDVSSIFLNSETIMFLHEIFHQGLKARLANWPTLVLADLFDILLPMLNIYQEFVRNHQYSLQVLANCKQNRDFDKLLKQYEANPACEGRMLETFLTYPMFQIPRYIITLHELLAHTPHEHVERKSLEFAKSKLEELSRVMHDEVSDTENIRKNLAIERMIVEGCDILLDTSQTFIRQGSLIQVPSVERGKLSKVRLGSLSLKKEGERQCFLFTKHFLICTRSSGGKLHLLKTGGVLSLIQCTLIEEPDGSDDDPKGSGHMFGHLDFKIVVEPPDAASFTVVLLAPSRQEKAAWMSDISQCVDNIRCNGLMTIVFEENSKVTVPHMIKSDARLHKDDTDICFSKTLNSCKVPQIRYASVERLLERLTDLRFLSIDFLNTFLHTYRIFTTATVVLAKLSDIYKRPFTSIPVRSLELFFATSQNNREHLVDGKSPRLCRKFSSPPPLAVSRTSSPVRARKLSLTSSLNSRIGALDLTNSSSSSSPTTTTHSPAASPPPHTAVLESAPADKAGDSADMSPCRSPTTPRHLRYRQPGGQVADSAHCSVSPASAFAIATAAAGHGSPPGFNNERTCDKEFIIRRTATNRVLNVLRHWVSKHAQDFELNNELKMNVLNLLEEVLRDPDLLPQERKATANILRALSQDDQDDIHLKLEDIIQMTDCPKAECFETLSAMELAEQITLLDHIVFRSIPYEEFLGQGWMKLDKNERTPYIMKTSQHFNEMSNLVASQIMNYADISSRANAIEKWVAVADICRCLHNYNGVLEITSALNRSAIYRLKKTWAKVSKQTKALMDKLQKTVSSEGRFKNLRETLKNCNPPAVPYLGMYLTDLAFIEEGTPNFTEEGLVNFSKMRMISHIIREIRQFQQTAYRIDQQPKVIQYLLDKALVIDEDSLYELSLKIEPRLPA
Assay: anti-FLAG co-IP of Flag-GRF2, MS; isolated from cells expressing Ras N17

With “H-Ras (GI 4885425) (from UniProt P01112) (enzyme)” the binding was “binds”.

No constants are given. Whether binding was seen depends on the method and setting. Binding seen in cells or lysates may run through a third protein. Binding can be weak; no strength is given. Tags and fused reporters may be left off the sequences shown.
